Reference: US20190225985A1, “Enhancing Bacillus Thuringiensis CRY Insecticidal Activity With a Chaperone” (Universidad Nacional Autónoma de México, priority 2016, published 2019)

Tested on: trypsin
Experiment: Proteolysis experiments: protoxin treated with trypsin in the presence of Hsp90 or BSA, Western blot
Assay type: biochemical
Conditions: 1 μg protoxin, 5 ng trypsin, in the presence of Hsp90 versus albumin

Question: For Cry1Ab, which “stability of 130 kDa protoxin to trypsin treatment” value is on record?
Answer: Its value is “more stable to treatment with trypsin”.
